{"source": "PubChem BioAssay AID602196 – INSERM – 2012", "screen": "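Genes whose knock-down alters cisplatin killing of lung cancer cells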", "cell system": "human A549 lung cancer cells", "reagents": "siRNA pair against human genes", "duration": "48 h transfection before cisplatin; time from cisplatin to read-out not stated", "treatment": "cisplatin at a dose killing half of control-siRNA cells; exact dose and duration not given", "detection": "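Shift in cisplatin death relative to control siRNA, from -50 (all cells die) to +50 (no cells die); siRNAs harmful on their own scored 0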", "reading the numbers": "two-siRNA summed score (-2 to +2): higher = both siRNAs protect from cisplatin killing; -2 means both sensitise", "hit rule": "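siRNAs harmful alone (LDH or WST-1) get 0; others get +1 for less and -1 for more cisplatin killing; genes are active when the two siRNAs give the same sign, summing to ±2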", "meaning of the calls": "active = both siRNAs shift cisplatin killing the same way; inactive = no consistent shift, or siRNA harmful alone", "note": "Shown is a random part of about 23,000 deposited reagents. Over the whole deposit, 455 (2%) got an active call. 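Active includes both protection and sensitisation; some change values fall well beyond the stated -50 to +50 range.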 Not all columns of the deposit are shown. Not stated in the record: the amount of reagent."}
{"gene": "LSAMP (limbic system associated membrane protein)", "two-siRNA summed score (-2 to +2)": 0, "outcome": "inactive"}
{"gene": "LOC400842", "two-siRNA summed score (-2 to +2)": 1, "outcome": "inactive"}
{"gene": "PRC1 (protein regulator of cytokinesis 1)", "two-siRNA summed score (-2 to +2)": 0, "outcome": "inactive"}
{"gene": "AAMDC (adipogenesis associated Mth938 domain containing)", "two-siRNA summed score (-2 to +2)": 0, "outcome": "inactive"}
{"gene": "NUDT8 (nudix hydrolase 8)", "two-siRNA summed score (-2 to +2)": 0, "outcome": "inactive"}
{"gene": "CACUL1 (CDK2 associated cullin domain 1)", "two-siRNA summed score (-2 to +2)": 0, "outcome": "inactive"}
{"gene": "LOC399898 (retired record)", "two-siRNA summed score (-2 to +2)": 0, "outcome": "inactive"}
{"gene": "CRYBB3 (crystallin beta B3)", "two-siRNA summed score (-2 to +2)": -1, "outcome": "inactive"}

Ordered by “two-siRNA summed score (-2 to +2)” (descending): 2 of the entries above.
{"gene": "CACUL1 (CDK2 associated cullin domain 1)", "two-siRNA summed score (-2 to +2)": 0, "outcome": "inactive"}
{"gene": "LOC399898 (retired record)", "two-siRNA summed score (-2 to +2)": 0, "outcome": "inactive"}

Further reagents:
{"gene": "SORL1 (sortilin related receptor 1)", "two-siRNA summed score (-2 to +2)": 0, "outcome": "inactive"}
{"gene": "LSG1 (large 60S subunit nuclear export GTPase 1)", "two-siRNA summed score (-2 to +2)": 0, "outcome": "inactive"}
{"gene": "SAXO1 (stabilizer of axonemal microtubules 1)", "two-siRNA summed score (-2 to +2)": 0, "outcome": "inactive"}
{"gene": "CDK14 (cyclin dependent kinase 14)", "two-siRNA summed score (-2 to +2)": -1, "outcome": "inactive"}
